Measured values: article PMC7334220, “Diamond Blackfan anemia is mediated by hyperactive Nemo-like kinase” (Nature Communications, 2020)
Results are given in words; binding and its absence hold for the method and conditions named. Binding seen in cells or lysates may run through a third protein. Some entries that bind do so weakly or less than the wild type. Where a sequence is shown, tags or fusion partners need not be part of it.

Target: Nemo-like kinase (NLK), CFP- or YFP-tagged (UniProt Q9UBE8)
Test: FRET or BRET; CFP-NLK and YFP-NLK transduced together in cord blood CD34+ progenitors (shLuc or shRPS19; with or without Nutlin-3) or bone marrow mononuclear cells; FRET read by flow cytometry (405 nm excitation, 529/24 filter)

B1: Nemo-like kinase (NLK), CFP- or YFP-tagged (enzyme, UniProt Q9UBE8 1-527)
chain: MSLCGARANAKMMAAYNGGTSAAAAGHHHHHHHHLPHLPPPHLHHHHHPQHHLHPGSAAAVHPVQQHTSSAAAAAAAAAAAAAMLNPGQQQPYFPSPAPGQAPGPAAAAPAQVQAAAAATVKAHHHQHSHHPQQQLDIEPDRPIGYGAFGVVWSVTDPRDGKRVALKKMPNVFQNLVSCKRVFRELKMLCFFKHDNVLSALDILQPPHIDYFEEIYVVTELMQSDLHKIIVSPQPLSSDHVKVFLYQILRGLKYLHSAGILHRDIKPGNLLVNSNCVLKICDFGLARVEELDESRHMTQEVVTQYYRAPEILMGSRHYSNAIDIWSVGCIFAELLGRRILFQAQSPIQQLDLITDLLGTPSLEAMRTACEGAKAHILRGPHKQPSLPVLYTLSSQATHEAVHLLCRMLVFDPSKRISAKDALAHPYLDEGRLRYHTCMCKCCFSTSTGRVYTSDFEPVTNPKFDDTFEKNLSSVRQVKEIIHQFILEQQKGNRVPLCINPQSAAFKSFISSTVAQPSEMPPSPLVWE
binding: binds
